This is an account of results in paper PMC9352920.

By UniProt entry, the sequences of proteins in these tests, tags left out.
UniProt Q9BQQ3: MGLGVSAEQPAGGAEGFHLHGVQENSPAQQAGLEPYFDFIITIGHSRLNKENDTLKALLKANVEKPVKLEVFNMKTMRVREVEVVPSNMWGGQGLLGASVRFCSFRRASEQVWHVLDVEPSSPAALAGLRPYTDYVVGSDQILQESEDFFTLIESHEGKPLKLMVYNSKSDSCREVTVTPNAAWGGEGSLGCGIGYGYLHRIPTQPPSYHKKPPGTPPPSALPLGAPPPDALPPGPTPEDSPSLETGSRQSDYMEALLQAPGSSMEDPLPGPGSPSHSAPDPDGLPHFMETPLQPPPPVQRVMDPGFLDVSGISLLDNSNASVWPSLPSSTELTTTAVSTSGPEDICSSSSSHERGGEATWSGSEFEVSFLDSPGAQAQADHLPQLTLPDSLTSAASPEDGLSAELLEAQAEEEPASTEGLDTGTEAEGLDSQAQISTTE

No constants are given. Whether binding was seen depends on the method and setting. Binding seen in cells or lysates may run through a third protein. Some entries that bind do so weakly or less than the wild type.

For the assay, the target named is GRASP65 (GORASP1) (UniProt Q9BQQ3). Description: co-IP; co-immunoprecipitation with GRASP55 or GRASP65 (Fig. S4D); cells, antibodies and buffer not told in the main text.

B1: GM130 (protein, UniProt Q08379 1-1002)
chain: MWPQPRLPPRPAMSEETRQSKLAAAKKKLREYQQRNSPGVPTGAKKKKKIKNGSNPETTTSGGCHSPEDTPKDNAATLQPSDDTVLPGGVPSPGASLTSMAASQNHDADNVPNLMDETKTFSSTESLRQLSQQLNGLVCESATCVNGEGPASSANLKDLESRYQQLAVALDSSYVTNKQLNITIEKLKQQNQEITDQLEEEKKECHQKQGALREQLQVHIQTIGILVSEKAELQTALAHTQHAARQKEGESEDLASRLQYSRRRVGELERALSAVSTQQKKADRYNKELTKERDALRLELYKNTQSNEDLKQEKSELEEKLRVLVTEKAGMQLNLEELQKKLEMTELLLQQFSSRCEAPDANQQLQQAMEERAQLEAHLGQVMESVRQLQMERDKYAENLKGESAMWRQRMQQMSEQVHTLREEKECSMSRVQELETSLAELRNQMAEPPPPEPPAGPSEVEQQLQAEAEHLRKELEGLAGQLQAQVQDNEGLSRLNREQEERLLELERAAELWGEQAEARRQILETMQNDRTTISRALSQNRELKEQLAELQSGFVKLTNENMEITSALQSEQHVKRELGKKLGELQEKLSELKETVELKSQEAQSLQQQRDQYLGHLQQYVAAYQQLTSEKEVLHNQLLLQTQLVDQLQQQEAQGKAVAEMARQELQETQERLEAATQQNQQLRAQLSLMAHPGEGDGLDREEEEDEEEEEEEAVAVPQPMPSIPEDLESREAMVAFFNSAVASAEEEQARLRGQLKEQRVRCRRLAHLLASAQKEPEAAAPAPGTGGDSVCGETHRALQGAMEKLQSRFMELMQEKADLKERVEELEHRCIQLSGETDTIGEYIALYQSQRAVLKERHREKEEYISRLAQDKEEMKVKLLELQELVLRLVGDRNEWHGRFLAAAQNPADEPTSGAPAPQELGAANQQGDLCEVSLAGSVEPAQGEAREGSPRDNPTAQQIMQLLREMQNPRERPGLGSNPCIPFFYRADENDEVKITVI
For B1, the binding result is given as “binds”.

B2: p23, also known as TMED10 (protein, UniProt P49755 32-219)
chain: ISFHLPINSRKCLREEIHKDLLVTGAYEISDQSGGAGGLRSHLKITDSAGHILYSKEDATKGKFAFTTEDYDMFEVCFESKGTGRIPDQLVILDMKHGVEAKNYEEIAKVEKLKPLEVELRRLEDLSESIVNDFAYMKKREEEMRDTNESTNTRVLYFSIFSMFCLIGLATWQVFYLRRFFKAKKLIE
As for B2, the binding result was “no binding”.
